Among the data in PubChem BioAssay AID1347423 (Functional Genomics Laboratory (NCATS/FGL), 2020) are z-score values, retold here.

Among all 52,000 sequences or so, about 210 (0.4%) were called active.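 Rule for the calls: active = gene whose silencing raises cell survival under the drug, median off-target-corrected z-score across its silencing RNAs 2 or more; inactive = the rest.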 The list shows a part of the results.

This experiment can be described thus: Resistance to Poly (ADP-Ribose) Polymerase inhibitor: Gene Identification via Genome-wide siRNA Screen. To be noted: mouse BRCA2 R2336H ES cells, olaparib, CellTiter-Glo viability; stronger effect = higher value. In outline: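 Mouse BRCA2 R2336H ES cells were reverse-transfected with siRNA (20 nM final), treated at 48 h with 500 nM olaparib, and read by CellTiter-Glo after 72 h. Scores: MAD-based z per siRNA, median per gene, seed off-target correction.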
In general terms: In ATP-based viability assays light output follows the ATP content of the culture.
Turning to GGAAGUUGAGAGCUUAAAGTT against Pank3, the z-score was inactive: 0.688.
CGCGCAGUGAAUAGCCUUCTT against AI413782: the z-score was inactive: -0.46.
For the sequence “GGGCAAUGUUCAGACUCUCTT against D930050H05Rik”, the z-score was inactive: -0.248.
The figure for “GGCUCGGACCAAAAAAAUUTT against 5730528L13Rik” is inactive: -0.283; for GGGACUUUCGUAAUAAACCTT against Lman1 it is inactive: 1.16.
On to UUUUUUUACUCAGUCCUCATT against Olfr538, for which the z-score was inactive: 1.88.
The figure for “GCUAGCAACAUCAUUGAUGTT against 2400001E08Rik” is inactive: -0.72; for GCGUAUUUAUCAGAGUUCATT against BC028975 it is inactive: 0.937.
The figure for GGAAACAUAACCUUCAAUGTT against Wdr3 is inactive: -0.336; for “GGAGCUGAAGACCACAAAGTT against 1700021K02Rik” it is inactive: -0.128.
The figure for GGAAUCCAGCUUCGAUGUCTT against Ciapin1 is inactive: -0.448; for “GCUCAGUUUCUCAUGAAACTT against 5830405N20Rik” it is inactive: 0.717; for GGGCAAUGUGCUACACCAUTT against Olfr640 it is inactive: 0.306.
Regarding CCCAUCACUUGAUUGCUUUTT against Kbtbd3, the z-score is inactive: -0.809.
As for GGACAGCAUUAACAUUGUATT against Fbxo22, the z-score was inactive: -0.0485.
Take GGGCCUUCUGAUUUAAAAGTT against Slc43a3: the z-score is inactive: 0.104.
Regarding AAUCCUGAUGCUACGCAUGTT against Phkg2, the z-score was inactive: 1.76.
In the case of GGAUUCCCUAUCCCAUACCTT against Araf1, the z-score was active: 4.36.
In the case of GGAGCUAAUCGCACUUAAATT against Tnnt3, the z-score is inactive: -1.2.
The figure for “GCCCAACUUUAAUCUUAUATT against D630039A03Rik” is inactive: 0.651; for CCCAAGCCUACCUUACGAGTT against Hipk2 it is inactive: 0.926.
As to GGAGUUUAAGAAGACGCACTT against Slc26a3, the z-score was inactive: 0.0188.
Regarding CGCUGUGCUGAGCUUACUUTT against D17H6S53E, the z-score was inactive: 0.556.
The figure for “GGAUCGAACUGCCAUUGCUTT against A930104D05Rik” is inactive: -2.28.
Take “GGAGAGUGACUUGCAUUAUTT against 2310030G06Rik”: the z-score was inactive: -0.736.
As to GGAAACCUUUGAUUGUUCATT against Gm225, the z-score was inactive: -1.77.
The figure for GCACAACGACCUUUCCAGGTT against Chst12 is inactive: 0.507.
The figure for GGACUUCUUCUAUUUCAUATT against BC029169 is inactive: 0.891.
